Data as given in PMC4823841.
Results are given in words; binding and its absence hold for the method and conditions named.

How the values were obtained:
[1] = target: recombinant ovine angiotensinogen expressed in E. coli (ovine (sheep)) (UniProt P20757); assay: dynamic light scattering; 25 °C, 0.5 mg/mL oANG, 20 mM sodium phosphate pH 7.4, 20 mM (oANG_(Ecoli)) or 33 mM (oANGCHO) KCl; both purified
[2] = target: recombinant ovine angiotensinogen expressed in E. coli (ovine (sheep)) (UniProt P20757); assay: SEC; analytical size-exclusion gel filtration, Superdex 200 10/300 GL, 2 mM HEPES, 0.20 M KCl, pH 8.0, 0.3 mL/min, calibrated with the Gel Filtration Standard; both purified

binding [1]: no binding (tested: 0.5 mg/mL) | binding [2]: no binding
B1: recombinant ovine angiotensinogen expressed in E. coli (protein, UniProt P20757 25-476)
chain: MDRVYIHPFHLLVHSKSNCDQLEKPSVETPADPTLTPVPIQTKSSPVDEEALWEQLVRATEKLEAEDRLRASEVGLLLNFMGFHVYKTLSETWSVASGLVFSPVALFSTLTSFYTGALDPTASRLQAFLGVPGEGQGCTSRLDGRKVLSSLQTIQGLLVAPGGASSQARLLLSTVVGLFTAPGLHLKQPFVQGLSSFAPITLPRSLDLSTDPNLAAEKINRFMHSATGWNMGRPLAAASPDSTLLFNAYVHFQGKMKGFSLLPGLTEFWVDNTTSVPVPMLSGSGTFHYWSDNQNHLSMTRVPLSANGYLLLIQPHHTLDLRKVEALIFQHNFLTRMKNLSPRAIHLTVPQLTLKASYDLQDLLAQAKLPTLLGAEANLGKISDANLRVGKVLNSVLFELKADGEQAPESVPQPAGPEALEVTLNSPFLLAVLERSSGALHFLGRVSRPLSAE
